Reference: PubChem BioAssay AID1671190 (National Center for Advancing Translational Sciences (NCATS), 2021)
Several values for one entry are separate records, joined by “and”; a condition that tells them apart may be missing. Identical values can stand only once. Hit rate of the full screen: of about 580,000 compounds, about 6,100 (1.1%) were called active. This list was built around the results that the source calls inconclusive (neither active nor inactive); the mix of calls is not that of the screen. Calls come from the whole dose curve; as a rule, active = well fitted inhibition curve with a large enough effect; inconclusive = small, poorly fitted or top-dose-only effect, or another doubt; inactive = no such curve, though single readings can be large or run the other way. A potency beside an inconclusive call is a rough fit, not a confirmed value.

Chains of the proteins cited; added tags and fusions are not shown. Lines headed by an entry give the natural chain unless they say otherwise; changes in a name come on top.
UniProt P18054: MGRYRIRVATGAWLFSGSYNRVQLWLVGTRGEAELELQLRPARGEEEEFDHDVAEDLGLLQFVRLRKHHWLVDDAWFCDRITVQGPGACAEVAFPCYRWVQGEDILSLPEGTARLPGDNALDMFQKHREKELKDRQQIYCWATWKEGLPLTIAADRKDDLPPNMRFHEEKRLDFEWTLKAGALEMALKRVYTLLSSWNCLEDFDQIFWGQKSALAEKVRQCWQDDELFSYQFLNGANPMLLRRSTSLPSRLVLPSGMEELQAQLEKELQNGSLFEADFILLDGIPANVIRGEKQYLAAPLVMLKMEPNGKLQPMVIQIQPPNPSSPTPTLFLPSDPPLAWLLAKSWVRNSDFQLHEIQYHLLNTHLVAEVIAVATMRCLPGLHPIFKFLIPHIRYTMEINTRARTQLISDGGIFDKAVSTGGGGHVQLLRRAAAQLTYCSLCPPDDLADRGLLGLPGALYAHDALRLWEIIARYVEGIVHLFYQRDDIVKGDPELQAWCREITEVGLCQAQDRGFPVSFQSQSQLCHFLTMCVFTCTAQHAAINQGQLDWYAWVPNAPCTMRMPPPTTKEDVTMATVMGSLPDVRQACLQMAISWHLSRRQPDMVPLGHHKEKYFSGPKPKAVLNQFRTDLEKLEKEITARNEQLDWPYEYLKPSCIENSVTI

Each compound was assayed against Polyunsaturated fatty acid lipoxygenase ALOX12 (Homo sapiens) (UniProt P18054) (assay: Primary qHTS assay for inhibitors of human arachidonate 12S-lipoxygenase (ALOX12): Round 2). Settings: purified 12hLO, xylenol orange hydroperoxide absorbance; series mostly up to 108 µM.
Procedure, shortened: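 Purified human 12hLO (150 nM final) in 25 mM Hepes, 0.01% Triton X-100, pH 7.0 was preincubated 15 min at room temperature with compound. Then 40 uM arachidonic acid was added, 30 min. Hydroperoxide was read by Fe-XO absorbance ratio 573/405 nm.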
Potency is the fitted concentration of half-maximal effect.

Row | Structure (SMILES) | Potency
1 | CCOC(=O)c1ccc(NC(=S)N2CCSC2c2ccc(Cl)cc2)cc1 (stereo unspecified) | inactive
2 | CC(=O)NC12CC3CC(C1)CC(C(=O)NCCCC1CCCC1)(C3)C2 | inactive
3 | Cc1nn(-c2ccc(N3CCCCC3)nn2)c(C)c1CCC(=O)Nc1ccc(F)c(F)c1 | inactive
4 | CCC(C)c1ccc(C2C3=C(Nc4nc(N)[nH]c(=O)c42)c2ccccc2C3=O)cc1 (stereo unspecified) | inconclusive: 79.4 µM [inhibitor, single point]
5 | CCN(CC)CCNC(=O)CS(=O)(=O)Cc1nc(-c2ccccc2C)oc1C | inconclusive: 50.1 µM [inhibitor, single point]
6 | O=C(CCC1N=C2c3ccccc3N=C(SCC(=O)NCCc3ccccc3)N2C1=O)NCc1ccc(F)cc1 (stereo unspecified) | inconclusive: 56.2 µM [inhibitor, partial curve, poor fit]
7 | CC1(C)NC(=O)N(CC(=O)OCC(=O)c2ccc(Cl)s2)C1=O | inconclusive: 50.1 µM [inhibitor, partial curve, poor fit]
8 | COC(=O)[C@@H]1[C@@H](C#N)C2(c3ccccc3-c3ccccc32)N(c2ccc(Cl)cc2)N1C#N | inconclusive: 28.2 µM [inhibitor, partial curve, poor fit]
9 | CCOc1ccc(OCC)c(NC(=O)C2CCCN(S(=O)(=O)c3ccc(C)cc3)C2)c1 (stereo unspecified) | inactive and inconclusive: 50.1 µM [inhibitor, partial curve, poor fit]
10 | CCCN(CCC)C(=O)Cn1c(=O)n(-c2ccc(Cl)c(Cl)c2)c(=O)c2c(C)c(C(=O)N(C)C)sc21 | inconclusive: 126 µM [inhibitor, partial curve, poor fit]
11 | CC/C(=C\C(=O)c1ccncc1)Nc1ccc(O)cc1 | inconclusive: 31.6 µM [inhibitor, partial curve, poor fit]
12 | CCCc1ccc(C(=O)COC(=O)c2cccc(S(C)(=O)=O)c2)cc1 | inactive
13 | CCNC(=S)NNC(=O)c1ccccc1 | inactive
14 | CCN1C=C(Cc2ccccc2C)C2=C(C1)C(c1ccccc1C)C(C#N)=C(N)O2 (stereo unspecified) | inconclusive: 35.5 µM [inhibitor, single point]
15 | CC(C)N1CCN(S(=O)(=O)c2ccc3ccccc3c2)CC1 | active: 0.794 µM
16 | CCc1ccc(CNC(=O)c2cc3cc(C)ccc3[nH]2)cc1 | active: 35.5 µM
17 | COc1ccc(N2CCCS2(=O)=O)cc1NS(=O)(=O)c1ccc(F)c(C)c1 | inactive
18 | C/C(=N\NC(=O)c1ccc(CN2CCc3ccccc3C2)cc1)c1ccccc1O | inactive
19 | C/C1=C\CC(C)(C)/C=C/C(=O)[C@@H](C)CCC[C@H](C)CC(=O)C1 | inconclusive: 100 µM [inhibitor, single point]
20 | Cc1cc(C(C)(C)C)cc(C)c1C(=O)O | inconclusive: 31.6 µM [inhibitor, partial curve, poor fit]
21 | CCC(C(=O)Nc1cccc2ccccc12)n1cnc2c1c(=O)n(C)c(=O)n2C (stereo unspecified) | inconclusive: 31.6 µM [inhibitor, partial curve, poor fit]

Row | Structure (SMILES) | Potency
22 | Cn1c(=O)[nH]c(=O)c2c1nc(SCC(=O)OCc1ccccc1)n2Cc1ccccc1 | inconclusive: 100 µM [inhibitor, partial curve, poor fit]
23 | O=S(=O)(NC(=S)NC1CCCCC1)c1ccccc1 | inconclusive: 50.1 µM [inhibitor, partial curve, poor fit]
24 | COC(=O)c1[nH]c2ccccc2c1NC(=O)CN1CCN(Cc2ccc3c(c2)OCO3)CC1 | inactive
25 | O=C(COC(=O)c1n[nH]c2ccccc12)c1cccc(Br)c1 | inconclusive: 100 µM [inhibitor, single point]
26 | CC(O)CNS(=O)(=O)c1cccc(C(=O)O)c1 (stereo unspecified) | inactive
27 | CCOC(=O)C1CCN(C(=O)COC(=O)c2ccc3[nH]c4c(c3c2)CCCC4)CC1 | inconclusive: 79.4 µM [inhibitor, partial curve, poor fit]
28 | O=C(SCc1c(O)c2ccccc2oc1=O)c1ccccc1 | active: 28.2 µM
29 | COc1cccc(NC(=O)Cc2nnc(SCC(=O)c3ccccc3)n2C)c1 | inconclusive: 15.8 µM [inhibitor, partial curve, poor fit]
30 | C[C@H]1COc2cc(NCCCN3CCOCC3)ccc2S(=O)(=O)N1 | inconclusive: 89.1 µM [inhibitor, partial curve, poor fit]
31 | CCCn1nnc(NC(=S)NC(=O)/C=C/c2ccc(Cl)cc2)n1 | inconclusive: 2.24 µM [inhibitor, full curve, poor fit]
32 | COc1ccc(/C(C)=N/NC(=O)c2cc(-c3cccnc3)nc3ccccc23)cc1 | inactive
33 | COc1ccc(C(=O)N2C(C(=O)N3CCCC3)COC23CCN(C(=O)Cc2ccccc2)CC3)cc1 (stereo unspecified) | inconclusive: 31.6 µM [inhibitor, partial curve]
34 | Cc1cc(C(=O)CN2C(=O)NC(c3ccccc3)(c3ccccc3)C2=O)c(C)n1Cc1ccco1 | inactive
35 | COCCCN(CCC(=O)NCCc1ccccc1)C(=O)c1cc(C)oc1C | inconclusive: 25.1 µM [inhibitor, full curve]
36 | COc1cc(CNC(=O)[C@H]2CCC[C@H]2NC(=O)c2cnc(C)cn2)cc(OC)c1 | inconclusive: 3.98 µM [inhibitor, full curve, poor fit]
37 | COc1ccccc1NC(=O)C(C)N(C)CC(=O)Nc1cccc2ccccc12 (stereo unspecified) | inconclusive: 70.8 µM [inhibitor, partial curve, poor fit]
38 | Cc1cccc(S(=O)(=O)N2CCCC(Cn3c(C4CC4)nc4cccnc43)C2)c1 (stereo unspecified) | inconclusive: 28.2 µM [inhibitor, full curve, poor fit]
39 | CCc1nnc(NS(=O)(=O)c2ccc(NC(=O)/C=C/c3ccc(OC)cc3OC)cc2)s1 | inconclusive: 31.6 µM [inhibitor, partial curve]
40 | S=c1nc(-c2cccc(Cl)c2)[nH][nH]1 | inconclusive: 44.7 µM [inhibitor, partial curve, poor fit]
41 | CC(C)C(=O)/C(C#N)=C\c1cccc([N+](=O)[O-])c1 | inactive
